According to PubChem BioAssay AID939 (National Center for Advancing Translational Sciences (NCATS), 2007):
Inconclusive means that the source gave no clear call. Such entries were picked first, then a sample of the others. Potencies beside an inconclusive call are fits to weak or partial responses and may not hold up. Active and inactive are the calls of the source. Calls follow the shape of the dose curve; as a rule, active = well fitted activation curve with a large enough effect in the main read-out, with a control signal flat; inconclusive = small, poorly fitted or top-dose-only effect, or effect the other way, or a change in a side signal; inactive = no such curve, though single readings can be large or run the other way.

The chains behind the UniProt entries cited, without tags or fusion partners.
UniProt P16473, whole entry, looked up: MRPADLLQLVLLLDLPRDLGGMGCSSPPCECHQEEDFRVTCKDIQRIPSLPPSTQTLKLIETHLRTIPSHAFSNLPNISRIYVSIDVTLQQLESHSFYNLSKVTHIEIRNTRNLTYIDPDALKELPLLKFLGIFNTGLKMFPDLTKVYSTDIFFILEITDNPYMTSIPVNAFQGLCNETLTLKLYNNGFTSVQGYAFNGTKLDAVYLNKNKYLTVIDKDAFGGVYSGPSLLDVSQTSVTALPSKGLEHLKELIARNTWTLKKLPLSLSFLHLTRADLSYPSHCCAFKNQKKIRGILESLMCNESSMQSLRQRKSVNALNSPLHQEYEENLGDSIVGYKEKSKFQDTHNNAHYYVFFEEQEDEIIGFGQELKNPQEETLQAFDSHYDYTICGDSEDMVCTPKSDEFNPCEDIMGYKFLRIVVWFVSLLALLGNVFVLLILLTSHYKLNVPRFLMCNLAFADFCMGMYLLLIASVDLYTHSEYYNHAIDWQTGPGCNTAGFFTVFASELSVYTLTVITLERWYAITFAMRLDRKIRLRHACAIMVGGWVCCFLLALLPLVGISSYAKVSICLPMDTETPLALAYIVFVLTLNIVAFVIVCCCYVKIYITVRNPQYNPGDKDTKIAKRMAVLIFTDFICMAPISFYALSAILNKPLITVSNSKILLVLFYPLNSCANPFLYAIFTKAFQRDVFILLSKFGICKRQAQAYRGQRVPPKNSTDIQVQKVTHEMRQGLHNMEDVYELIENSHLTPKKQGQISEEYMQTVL

molecular target: Thyrotropin receptor (Homo sapiens) (UniProt P16473); assay: Confirmation Concentration-Response Assay for Agonists of the Thyroid Stimulating Hormone Receptor; settings: HEK293 TSHR-CNG cells, membrane potential dye, cAMP; activation: at 25.6 µM (top of the series); as to activation: % of control where 0% means no effect
Excerpt: NIH Chemical Genomics Center [NCGC] NIH Molecular Libraries Screening Centers Network [MLSCN] MLSCN Grant: 1 X01 MH080680-01 PI Name: Dr. Marvin Gershengorn, NIH NCGC Assay Overview: Thyroid Stimulating Hormone Receptor TSH is an alpha/beta heterodimeric glycoprotein hormone secreted from the anterior pituitary gland which belongs to the glycoprotein hormone family. The actions of TSH are mediated by a seven-transmembrane receptor, which upon TSH binding couples preferentially to the G-alpha (s) protein (Gs), resulting in activation of adenylate cyclase and increase in cyclic adenosine 3', 5' monophosphate (cAMP). The TSH receptor (THSR) is mainly expressed in thyroid follicular cells and regulates their growth and function. Recombinant TSH is used to activate TSHR in patients with thyroid cancer receiving thyroid hormone suppression therapy and to screen for residual tumor after surgery, but it is expensive and must be administered intramuscularly. An orally active small molecule TSHR agonist would serve as an invaluable research tool for studying TSHR pharmacology and physiology, and would have multiple advantages in therapeutic settings. However, no selective small molecule agonist of the TSH receptor exists, and no small molecule screen for TSHR agonists has ever been reported. This cell based assay utilized a cyclic nucleotide gated ion channel (CNG) as a biosensor for cAMP induction by potential TSHR agonists. TSHR cell line HEK 293 cells stably expressing the TSHR as well as a modified CNG were purchased from BD biosciences. Stimulation of cAMP production causes the CNG to open and subsequent membrane depolarization to occur. A fluorescent membrane potential dye (BD biosciences) was utilized to detect cAMP stimulation in TSHR cells. The cells were maintained in DMEM medium (Invitrogen) containing 10 % FBS (Hyclone), 100 units/ml Penicillin, 100 ug/ml Streptomycin (Invitrogen), and 250 ug/ml Geneticin (Invitrogen) and 1 ug/ml Puromycin (Invitrogen) at 37C in 5% CO2. HEK 293 cells expressing CNG but without TSHR (parental cells) were used in concert to control for compounds signaling through endogenous receptors and targets of HEK 293 cells.
NCGC Assay Protocol Summary: High Throughput Screening. Freshly passaged cells (TSHR or parental) were dispensed into 1536-well assay plates at 4 ul/well in DMEM containing phenol red (Invitrogen), 10% FCS (Hyclone), and 100 units/ml Penicillin, 100 ug/ml Streptomycin (Invitrogen) and incubated at 37 C with 5% CO2 for 20 to 36 hrs before the robotic screening. The screen was initiated by addition of 4 ul/well membrane potential dye containing 100 uM RO 20-1724 (Sigma Aldrich), followed by 60 min incubation at room temperature to allow for dye equilibration across the cell membrane. 23 nl/well compound or control was then added to the assay plates, which were incubated for additional 30 min before reading a Envision fluorescence plate reader (Perkin Elmer) in bottom-read mode for fluorescence intensity (emission at 590 nm). Keywords: Thyroid-stimulating hormone TSH, TSHR, TSHR agonist, quantitative high throughput screening, qHTS, HTS, probe identification, CNG, cAMP, cyclic nucleotide gated ion channel PubChem
Potency is read from the fitted curve at half-maximal effect.

Potency, active:
COc1ccc(C(=O)N(Cc2ccco2)Cc2cccs2)c(O)c1 1 µM
CN(Cc1ccco1)C(=O)Cn1c(=O)oc2cc(S(=O)(=O)NCc3ccccc3)ccc21 12.6 µM
Cc1occc1-c1nnc(SCC(=O)NCc2ccc3c(c2)OCO3)n1CC(C)C 12.6 µM
COc1cc(OC)cc(-c2nnc(SCC(=O)N(C(C)C)C(C)C)o2)c1 12.6 µM
COC(=O)C1=C(C)OC(N)=C(C#N)C1c1c(C)nn(-c2ccccc2)c1Cl (stereo not given) 7.94 µM
Cc1nn(-c2ccccc2)c(N2CCCC2)c1/C=N/n1cnc2scc(-c3ccccc3)c2c1=O 1.58 µM
Oc1ccccc1-c1cc(C(F)(F)C(F)F)nc(-c2ccccc2)n1 7.94 µM

Part of the list above in order of formula weight, smallest number first.
Potency, active:
COc1ccc(C(=O)N(Cc2ccco2)Cc2cccs2)c(O)c1 1 µM
Oc1ccccc1-c1cc(C(F)(F)C(F)F)nc(-c2ccccc2)n1 7.94 µM
CN(Cc1ccco1)C(=O)Cn1c(=O)oc2cc(S(=O)(=O)NCc3ccccc3)ccc21 12.6 µM

Following part.

Potency, inconclusive:
CC1=CCC2C(=O)N(c3ccc(Br)cc3C)C(=O)C2C1 (stereo not given) 2.51 µM [activator, full curve]
CC1CCN(S(=O)(=O)c2cccc(C(=O)Nc3ccccn3)c2)CC1 12.6 µM [activator, partial curve]
Cc1occc1-c1nnc(SCC(=O)NCc2ccco2)n1CC(C)C 12.6 µM [activator, partial curve, poor fit]
COc1cc(OC)cc(C(=O)N2c3ccc(F)cc3CCC2C)c1 (stereo not given) 10 µM [activator, partial curve]
N=c1c(C(=O)NCc2ccc(F)cc2)cc2c(=O)n3ccccc3nc2n1Cc1ccco1 10 µM [falling, partial curve]
O=C(CN(c1ccc2c(c1)OCCO2)S(=O)(=O)c1ccccc1)NCc1ccco1 12.6 µM [activator, partial curve, poor fit]
Cc1cc(C)n(S(=O)(=O)c2cc(C(=O)O)c(Cl)cc2Cl)n1 10 µM [activator, full curve, poor fit]
CCOc1ccc(N(CC(=O)NCc2cccs2)S(=O)(=O)c2c(C)noc2C)cc1 10 µM [activator, partial curve]
O=C(CN1C(=O)NC2(CCCCC2)C1=O)NCCC1=CCCCC1 15.8 µM [activator, partial curve, poor fit]
O=C(CSc1nc2scc(-c3ccco3)c2c(=O)n1-c1ccccc1)N1CCOCC1 5.01 µM [activator, full curve]
COC(=O)c1cc(C(=O)OC)cc(N2C(=O)CC(Sc3nc(C)cc(C)n3)C2=O)c1 (stereo not given) 15.8 µM [activator, partial curve, poor fit]
COC(=O)C1=C(C)NC(C)=C(C(=O)OC)C1c1ccc(OC(=O)c2ccco2)cc1 25.1 µM [activator, partial curve, poor fit]
COc1ccc(N(C)S(=O)(=O)c2cccc(C(=O)NC3=NCCS3)c2)cc1 12.6 µM [activator, partial curve, poor fit]
Cc1cccc(OCC(=O)OCC(=O)c2c(N)n(C)c(=O)n(C)c2=O)c1 12.6 µM [activator, partial curve, poor fit]
CCCS(=O)(=O)N1CCN(C(=O)c2ccc(-c3ccccc3)cc2)CC1 2 µM [activator, full curve, poor fit]
CCOC(=O)CCc1c(C)nc2c(c(C)nn2C(C)(C)C)c1C 12.6 µM [activator, partial curve]
CC1(c2ccccn2)Nc2ccccc2-c2nc3ccccc3n21 (stereo not given) 3.98 µM [activator, partial curve]
COCCNC(=O)C(c1ccc(C)o1)N(C(=O)c1snc(C(N)=O)c1N)c1ccc(C)cc1 (stereo not given) 5.01 µM [activator, full curve, poor fit]
CS(=O)(=O)N1CCN(C(=O)c2cc(-c3cccs3)nc3ccccc23)CC1 5.01 µM [activator, full curve]

activation, inconclusive:
Cc1oc2c(CN3CCOCC3)c(O)ccc2c(=O)c1-c1ccccc1 15.8%
O=C(NCc1ccco1)c1cc(-c2ccccc2)c(N2CCOCC2)s1 -20.9%
COc1ccc(F)cc1S(=O)(=O)n1cc(C)nc1-c1ccccc1 24.5%
COc1ccc(Br)cc1CNC(=O)C1CCN(S(=O)(=O)N2CCCCC2)CC1 -32.7%

activation, inactive:
CCOC(=O)CSc1nnc(NC(=O)c2cccc(S(=O)(=O)N3CCCCC3)c2)s1 -211%
Nc1ccc2c(c1)COc1ccccc1O2 -6.04%
Cc1ccccc1-c1nc(CN2CCC(C(=O)N3CCN(c4ccccn4)CC3)CC2)c(C)o1 3.04%
O=c1c2ccccc2ncn1-c1ccc2c(c1)OCCO2 13.2%
CCC(C)(C)n1nnnc1CN(Cc1ccco1)Cc1cc2cc3c(cc2[nH]c1=O)OCO3 -17.7% [at 32.9 µM]
O=S(=O)(c1ccccc1)N1CCN(C2CCN(Cc3ccccc3)CC2)CC1 -0.19%
CC(=O)Nc1ccc(S(=O)(=O)N(C)c2ccccc2)cc1 21% [at 32.9 µM]
Nc1cc(CN2C(=O)c3ccccc3C2=O)cc(Cl)c1O -3.93%
CCOc1ccc(N(CC(=O)NC(C)(C)C)S(=O)(=O)c2c(C)noc2C)cc1 16.8%
Cc1nc2ccc(Br)cn2c(=O)c1Cl 24.6%
